Assay [1] concerns the target SUMO, yeast two-hybrid fusion [SUMO: Q12306]. Description: two-hybrid; Y2H assay with SUMO (Supplementary Figure S3A); conditions not given.
Assay [2] has as its target T1, Full-length Top2, yeast two-hybrid fusion (budding yeast (S. cerevisiae)) (UniProt P06786).
T1 sequence: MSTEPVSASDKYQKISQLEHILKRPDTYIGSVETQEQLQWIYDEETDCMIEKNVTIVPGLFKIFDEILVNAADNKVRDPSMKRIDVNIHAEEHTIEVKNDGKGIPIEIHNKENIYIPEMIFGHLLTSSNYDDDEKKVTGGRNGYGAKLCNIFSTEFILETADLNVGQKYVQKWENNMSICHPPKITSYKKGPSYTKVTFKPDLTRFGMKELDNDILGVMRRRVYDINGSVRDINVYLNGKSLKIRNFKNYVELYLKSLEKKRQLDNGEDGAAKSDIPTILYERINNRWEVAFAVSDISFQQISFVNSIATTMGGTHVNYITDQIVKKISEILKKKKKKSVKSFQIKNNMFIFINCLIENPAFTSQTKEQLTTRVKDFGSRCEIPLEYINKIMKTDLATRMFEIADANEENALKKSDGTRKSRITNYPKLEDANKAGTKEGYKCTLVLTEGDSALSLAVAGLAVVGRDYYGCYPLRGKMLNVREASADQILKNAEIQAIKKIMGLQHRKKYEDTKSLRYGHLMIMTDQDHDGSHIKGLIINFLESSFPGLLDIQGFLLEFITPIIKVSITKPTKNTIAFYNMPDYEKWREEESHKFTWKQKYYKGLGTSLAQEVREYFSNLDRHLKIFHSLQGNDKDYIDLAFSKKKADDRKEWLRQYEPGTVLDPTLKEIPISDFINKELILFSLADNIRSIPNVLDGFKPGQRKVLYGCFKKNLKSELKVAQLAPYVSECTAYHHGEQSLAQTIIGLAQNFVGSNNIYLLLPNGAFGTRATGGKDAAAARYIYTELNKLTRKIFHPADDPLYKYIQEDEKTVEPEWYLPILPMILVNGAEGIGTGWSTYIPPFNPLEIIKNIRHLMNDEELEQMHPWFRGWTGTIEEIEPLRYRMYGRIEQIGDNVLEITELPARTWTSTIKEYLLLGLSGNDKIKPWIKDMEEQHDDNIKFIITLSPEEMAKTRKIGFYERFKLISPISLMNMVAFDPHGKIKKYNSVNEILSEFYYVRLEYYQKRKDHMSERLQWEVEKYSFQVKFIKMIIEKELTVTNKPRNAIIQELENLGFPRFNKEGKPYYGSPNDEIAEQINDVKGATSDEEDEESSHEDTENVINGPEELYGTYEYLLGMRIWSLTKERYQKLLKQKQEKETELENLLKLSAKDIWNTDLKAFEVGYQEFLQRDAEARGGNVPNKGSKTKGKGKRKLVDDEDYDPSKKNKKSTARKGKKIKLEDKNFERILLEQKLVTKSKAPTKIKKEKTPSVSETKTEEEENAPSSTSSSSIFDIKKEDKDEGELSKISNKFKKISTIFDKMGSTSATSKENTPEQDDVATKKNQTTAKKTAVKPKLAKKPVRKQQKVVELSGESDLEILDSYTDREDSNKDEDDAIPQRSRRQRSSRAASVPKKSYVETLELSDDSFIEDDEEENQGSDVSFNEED
The assay is described as follows: two-hybrid; Gal4 activator domain (pOAD) and Gal4 binding domain (pOBD) plasmids in yeast; growth on -LWH plates with 5 mM 3-Amino-1,2,4-triazole, control -LW plates.

Results are given in words; binding and its absence hold for the method and conditions named. Some results given as binding are weak or reduced against the parent protein; the word gives no strength. Tags and fused reporters may be left off the sequences shown.

B1: Uls1 350-655 (HFP133), yeast two-hybrid fusion (domain or fragment, UniProt Q08562 350-655)
chain: PSKNMDHTTHNSHDSEQKNSSIIILSDEDESGAGINDIESPLKVSEPNTADALRSSVPEVISLLDLPNIDLNNSVIKEASGSNSIPTSETDAQSSSSSVLQGTIMTEQATQSSQHECNSSLDTLKKNHQKLLKDLNSRESELRNALSCCKTNSEILRRKLSRREKEVSDAEKHWQLLLTSMARGGRTISSTQQILVDEAENQLNKLKEKRQLTKSKLDSINLKMYNYNEQWKSFVHSKNINLQKSLAALERSARDSKASATVNKRNECLAEKEKLDQMLKEGTLSFSTYKQLTGEIQQKLNDLKLG
For B1, the binding result in assay [1] and in assay [2] was “binds” each time.

B2: Uls1 fragment 1-350 (HFP193), yeast two-hybrid fusion (domain or fragment, UniProt Q08562 1-350)
chain: MAAVPTIDLTLADSDNEDIFHSFSSSTSVDKIDIRKENGKLRMAGLEVAQSNDDAARQAFHVFKTNISNNETFDTILSKSKTITDSTFNNEKSSNEVKQQQVLKEETMGSSNDEKKTQESSPSAEMIKLFYENDDVPLSDSFKQKEEGKRINQDEQVKENICGISSSYVSKDYDGVEDDFEPNTCQDSNLDFQEEKLNLNNKPSQQQFSDPETKDNSLKSENKDQIKGVTTTSYRDLPIESSAFQDSETQNNSKNTIPNIVNEKRTPALPSNLSSVESSLKNETAKVEGKTTVRLPGLQNNVALLEQEQSELFKHFSEQPVDISDFGRKIKRKHSGDFADNKILKRPILP
For B2, in assay [2], the binding result was “no binding”.

B3: Uls1 fragment 655-1619 (HFP134), yeast two-hybrid fusion (domain or fragment, UniProt Q08562 655-1619)
chain: GDQRTTDINSVLPIVRQPLAKRDLFIKSIDTAKDLLAKNTSRTEMTKRILYRHLDNLVSYKNFFEDGRSLIDINRRHVAHESAQILFTNGVKMPIVFETLQDYGIKFSNPAIVNPDRRAQYFKSIEVARDLISKSTRSEDAKRKITRFLNIIEEFRKDIDTGFPPTPLKREGVGKAVVGLRQQGLKMDRLYENLRRYKIPITSEELLQQSYLFPVNADQRPPSNWNIVENTEDTSSTANDLSMQDEFHISNMHAAEDQEQIRALLENVKQSESIIDGEALTPEDMTVNLLKHQRLGLHWLLQVENSAKKGGLLADDMGLGKTIQAIALMLANRSEESKCKTNLIVAPVSVLRVWKGELETKVKKRAKFTTFIFGGSGNGKVKHWRDLARYDAVLVSYQTLANEFKKHWPKKLDGEQNQLPAVPHIQALNRLKTSNEYYSPFFCNDSTFYRILLDEGQNIKNKNTRASKACCTINGMYRWVLSGTPIQNSMDELYSLIRFLRIPPYHKEQRFKLDIGRFFQRNKQYQYDNEDRKNALRKVRVLLNAIMLRRSKADKIDGKPLLELPPKIVEVDESRLKGEELKFYTALESKNQALAKKLLNNSTRGSYSSVLTLLLRLRQACCHSELVVMGEKKAEGTKVANGKSFEDDWLRLYYKITHMSGEAQAQVITSMNSMTCFWCMEQLEPEAMSVLTGCGHLICDTCIEPFIEESSMLPQAKKTKGGAFAIPCKDCQRLTNEKDIVSHKLYDQVINQGFTEEDLHAEYLSEMEKQKIQQKNVYVPNFESLEPSTKIEQCIQVIQRVFDESATEKIIIFSQFTTFFEILEHFLKNKLNFPYLKYIGSMNAQRRSDVINEFYRDPEKRILLISMKAGNSGLTLTCANHVVIVDPFWNPYVEEQAQDRCYRISQTKKVQVHKLFIKDSVEDRISELQKRKKEMVDSAMDPGKIKEVNSLGRRELGFLFGLNAL
For the molecule B3, the binding result in assay [2] was “no binding”.

For the origin of these results see paper PMC6614809.
